Results on one substance are retold here after paper PMC9359432.

Chains of the proteins cited; added tags and fusions are not shown.
UniProt P11142: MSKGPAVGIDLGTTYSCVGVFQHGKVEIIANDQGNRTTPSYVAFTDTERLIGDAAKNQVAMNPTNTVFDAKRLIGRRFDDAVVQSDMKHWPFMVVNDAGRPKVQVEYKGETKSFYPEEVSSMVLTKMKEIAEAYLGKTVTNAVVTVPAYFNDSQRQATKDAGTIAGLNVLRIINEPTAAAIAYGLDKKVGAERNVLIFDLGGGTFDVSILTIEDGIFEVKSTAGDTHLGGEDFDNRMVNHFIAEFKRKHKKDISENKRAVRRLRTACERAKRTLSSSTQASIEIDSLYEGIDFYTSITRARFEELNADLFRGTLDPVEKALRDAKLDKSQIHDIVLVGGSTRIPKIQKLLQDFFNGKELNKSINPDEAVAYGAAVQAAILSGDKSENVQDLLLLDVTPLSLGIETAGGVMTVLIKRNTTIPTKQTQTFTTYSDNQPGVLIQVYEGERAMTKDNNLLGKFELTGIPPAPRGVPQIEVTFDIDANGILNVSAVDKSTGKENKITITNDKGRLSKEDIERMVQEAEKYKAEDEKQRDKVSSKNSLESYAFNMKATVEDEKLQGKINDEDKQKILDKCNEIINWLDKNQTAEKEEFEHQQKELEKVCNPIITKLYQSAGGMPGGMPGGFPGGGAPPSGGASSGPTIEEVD

No constants are given. Whether binding was seen depends on the method and setting. In cells and extracts the contact can be indirect. Some binding calls cover weakened binding; strength is not graded here. Sequences can lack the tags named with a protein.

The target of the assay is T1, CCDC102B-Flag (coiled-coil domain containing 102B with C-terminal 3×FLAG tag) (human (cDNA of MDA-MB-231)) (UniProt Q68D86).
T1 sequence: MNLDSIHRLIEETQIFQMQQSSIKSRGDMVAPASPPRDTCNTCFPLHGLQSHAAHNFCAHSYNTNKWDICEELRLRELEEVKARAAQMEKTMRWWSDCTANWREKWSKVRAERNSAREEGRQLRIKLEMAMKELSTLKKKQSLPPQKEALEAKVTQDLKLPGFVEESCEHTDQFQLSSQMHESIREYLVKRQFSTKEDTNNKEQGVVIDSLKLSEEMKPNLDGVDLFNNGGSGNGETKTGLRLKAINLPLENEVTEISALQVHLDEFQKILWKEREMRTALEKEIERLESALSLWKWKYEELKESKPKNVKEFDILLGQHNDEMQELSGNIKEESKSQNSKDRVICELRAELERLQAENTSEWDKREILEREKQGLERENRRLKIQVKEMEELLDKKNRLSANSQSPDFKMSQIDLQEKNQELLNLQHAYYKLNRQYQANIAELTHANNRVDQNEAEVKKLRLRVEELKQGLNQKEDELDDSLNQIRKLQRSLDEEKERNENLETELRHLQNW
In words: co-IP; MDA-MB-231 cells stably overexpressing CCDC102B-Flag or control; lysates in IP lysis buffer on magnetic beads overnight at 4°C, western blot; cells in complete or serum-free medium for 24 h, with or without RACK1 overexpression. A general note: Immunoblotting shows a protein as a band on a membrane.

In the case of HSPA8 (from UniProt P11142 1-646), the binding result is “binds”.
